Earlier results as cited in patent publication US8420624B2, “Methods for treating or preventing symptoms of hormonal variations” (Yung Shin Pharm. Ind. Co., Ltd., priority 2007, dated 2013).
For some of these results: At least one structure is not confirmed: it was looked up by name or label, or the drawing left a doubt. Some results were stated once for a whole list of compounds, not compound by compound.

Assays:
serotonin receptors = settings: cited from earlier work
α-adrenergic receptors = settings: cited from earlier work
dopamine receptors = settings: cited from earlier work
hot flashes = settings: pilot studies; cited from earlier work

SMILES | affinity (serotonin receptors) | affinity (α-adrenergic receptors) | affinity (dopamine receptors) | hot-flash score reduction (hot flashes)
Cc1cc2c(s1)Nc1ccccc1N=C2N1CCN(C)CC1 [olanzapine] | high affinity | low affinity | high affinity | 
COc1ccc(C(CN(C)C)C2(O)CCCCC2)cc1 (stereo not shown) [venlafaxine] |  |  |  | 55%-75%
